# Measured values taken from US10435411B2, “Oxime group-containing quinoline compound, N-oxide thereof or salt thereof, agricultural and horticultural insecticide comprising the compound, and method for using the insecticide” (Nihon Nohyaku Co., Ltd., priority 2016, dated 2019).
# Some results were stated once for a whole list of compounds, not compound by compound.
# System: Myzus persicae
# Assay: Test for control efficacy on Myzus persicae (foliar application, potted Chinese cabbage)
# Format: in vivo
# Details: 500 ppm dispersion in water, foliar application to Chinese cabbage, 6 days after application
row,SMILES,control efficacy (control rate) activity level
1,"CCS(=O)(=O)c1cc2cc(/C=N/O)ccc2nc1-c1nc2cc(C(F)(F)F)cnc2n1C [Compound 1-1, (E)-3-(ethylsulfonyl)-2-(3-methyl-6-(trifluoromethyl)-3H-imidazo[4,5-b]pyridin-2-yl)quinoline-6-carbaldehyde oxime]",A (the control rate is 100%.)
2,"CCS(=O)(=O)c1cc2cc(/C=N/OCC(F)(F)F)ccc2nc1-c1nc2cc(C(F)(F)F)cnc2n1C [Compound 1-7, (E)-3-(ethylsulfonyl)-2-(3-methyl-6-(trifluoromethyl)-3H-imidazo[4,5-b]pyridin-2-yl)quinoline-6-carbaldehyde O-(2,2,2-trifluoroethyl)oxime]",A (the control rate is 100%.)
3,"CCS(=O)(=O)c1cc2ccc(/C=N/OCSC)cc2nc1-c1nc2cc(C(F)(F)F)cnc2n1C [Compound 2-19, 3-(ethylsulfonyl)-2-(3-methyl-6-(trifluoromethyl)-3H-imidazo[4,5-b]pyridin-2-yl)quinoline-7-carbaldehyde O-(methylthiomethyl)oxime]",A (the control rate is 100%.)
4,"CCS(=O)(=O)c1cc2ccc(/C=N/OC[S+](C)[O-])cc2nc1-c1nc2cc(C(F)(F)F)cnc2n1C (stereo not shown) [Compound 2-24, 3-(ethylsulfonyl)-2-(3-methyl-6-(trifluoromethyl)-3H-imidazo[4,5-b]pyridin-2-yl)quinoline-7-carbaldehyde O-(methylsulfinylmethyl)oxime]",A (the control rate is 100%.)
5,"CCS(=O)(=O)c1cc2ccc(/C=N/OCS(C)(=O)=O)cc2nc1-c1nc2cc(C(F)(F)F)cnc2n1C [Compound 2-25, 3-(ethylsulfonyl)-2-(3-methyl-6-(trifluoromethyl)-3H-imidazo[4,5-b]pyridin-2-yl)quinoline-7-carbaldehyde O-(methylsulfonylmethyl)oxime]",A (the control rate is 100%.)
6,"CCS(=O)(=O)c1cc2cc(/C(C)=N/O)ccc2nc1-c1nc2cc(SC(F)(F)F)ccc2o1 [Compound 3-2, 1-(3-(ethylsulfonyl)-2-(5-(trifluoromethylthio)benzo[d]oxazol-2-yl)quinolin-6-yl)ethanone oxime]",A (the control rate is 100%.)
7,"CCS(=O)(=O)c1cc2cc(/C(C)=N/OCC(F)(F)F)ccc2nc1-c1nc2cc(SC(F)(F)F)ccc2o1 [Compound 3-8, 1-(3-(ethylsulfonyl)-2-(5-(trifluoromethylthio)benzo[d]oxazol-2-yl)quinolin-6-yl)ethanone O-(2,2,2-trifluoroethyl)oxime]",A (the control rate is 100%.)
